Library screen at single concentrations

Chains of the proteins cited; added tags and fusions are not shown. Residues count along the entry.
UniProt Q8IDJ8, 1-583: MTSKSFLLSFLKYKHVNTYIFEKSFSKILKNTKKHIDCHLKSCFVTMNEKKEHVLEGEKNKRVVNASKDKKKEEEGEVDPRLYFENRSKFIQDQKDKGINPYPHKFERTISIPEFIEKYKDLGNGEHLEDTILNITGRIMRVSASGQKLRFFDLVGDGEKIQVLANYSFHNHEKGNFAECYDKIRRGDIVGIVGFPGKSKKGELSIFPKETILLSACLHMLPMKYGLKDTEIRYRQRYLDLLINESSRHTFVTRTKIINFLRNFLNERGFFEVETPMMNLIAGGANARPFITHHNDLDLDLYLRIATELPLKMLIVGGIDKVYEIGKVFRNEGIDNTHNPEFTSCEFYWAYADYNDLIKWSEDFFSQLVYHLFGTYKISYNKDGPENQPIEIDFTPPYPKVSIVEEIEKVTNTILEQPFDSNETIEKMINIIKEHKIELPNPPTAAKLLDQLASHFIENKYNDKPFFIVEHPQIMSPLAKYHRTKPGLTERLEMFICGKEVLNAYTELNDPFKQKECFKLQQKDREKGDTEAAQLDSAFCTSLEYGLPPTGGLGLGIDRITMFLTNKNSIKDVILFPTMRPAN

Data taken from ChEMBL document CHEMBL3988442, “University of Dundee, Small-Polar-MMV Screening Library” (2021).

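Enzyme assay of the cytosolic lysyl-tRNA synthetase in 384-well plates, read by luminescence. Target: Lysine-tRNA ligase, Plasmodium falciparum 3D7 (UniProt Q8IDJ8). Tested at 30 µM. Direction is inferred from only a few compounds that gave an IC50; most scored high, so higher reads as stronger inhibition. Of about 69,000 compounds tested this way, about 49 (0.071%) reached 50% or more in at least one test.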

Results are given as percent effect. How 0% and 100% were set is not recorded. Most values in the screen are low, and negative values occur. The compounds are a random part of those screened.

SMILES,percent effect
Cc1cnn(Cc2ccc(NC(=O)N3CCCCC3CO)cc2)c1 (stereo not given),-2.359
Cc1cc(C)c(OCC(=O)NS(=O)(=O)c2c(C)noc2C)c(C)c1,-1.055
Cn1ncc(Cl)c1C(=O)NCCN1CCC(O)(c2ccc(F)cc2)CC1,0.3538
Cn1nc(CC(C)(C)C)cc1NC(=O)c1ccc2[nH]nnc2c1,2.433
c1cc(-c2nnc([C@H]3CCN(C4CCOCC4)C3)o2)ccn1,1.438
CN(C)CC1CN(CCOc2cccc(C#N)c2)CCO1 (stereo not given),-1.029
Cc1ncc(CNC(=O)CCc2cccc(F)c2)c(C2CCCN2C)n1 (stereo not given),-0.4823
CCOC(=O)c1c(NC(=O)CN2CCN(C(C)=O)CC2)sc2c1CCC2,2.263
Cc1ccccc1SC1CCN(C(=O)CCCS(N)(=O)=O)CC1,9.351
CCC(C)N(Cc1ccc(C)cc1)Cc1c[nH]c(C)n1 (stereo not given),0.3507
Cc1cc(-c2nc(-c3c(C)ncc4c3CCNC4)no2)nc(C)n1,-4.238
CCc1nnc(CN2CCOC(Cn3cccn3)C2)o1 (stereo not given),-0.06577
CCN1CC(C(=O)N(C)Cc2cc3cc(F)ccc3[nH]2)CC1=O (stereo not given),4.969
CN1CC2(CCN(C(=O)c3cc(-n4cccn4)ccc3Cl)CC2)OC1=O,-0.5298
COCCN1CCCC(CCCc2ccccn2)(C(N)=O)C1 (stereo not given),6.5
Cc1nccc(C(=O)NC(CN2CCCC2=O)c2ccccc2)n1 (stereo not given),0.6361
N#Cc1ccc2c(c1)CN(C(=O)c1nc[nH]n1)C2c1cnco1 (stereo not given),1.753
Cn1cc(CN2CCc3c(nc(-c4ccccn4)[nH]c3=O)C2)cn1,-4.469
Cc1nc(N(C)C)nc(C)c1NS(=O)(=O)c1ccccc1Cl,4.141
CCc1nc(C2CCCN2C(=O)c2csc(NC(C)=O)n2)no1 (stereo not given),2.067
CCc1cc(CNC(=O)N2Cc3ccccc3N(C)CC2C)on1 (stereo not given),3.599
OCCNc1nc(NCc2cccnc2)nc2nccnc12,-2.998
CSCC(C)(O)CNS(=O)(=O)c1cccc(Cl)c1 (stereo not given),0.9081
CCC(C)C(=O)NCCCn1nc(C)cc1C (stereo not given),0.7588
COC(=O)NCC(=O)NCC(C)(C)c1cccc(C(F)(F)F)c1,3.1
Cc1ccc(C(=O)NCCS(=O)(=O)Cc2ccccc2)c(=O)[nH]1,4.553
Cc1cc(CN2CCCC(NS(C)(=O)=O)C2)ccc1-n1cncn1 (stereo not given),0.4345
CN(C)CC1CN(Cc2ccc3c(c2)OCO3)Cc2nccn2C1 (stereo not given),-4.322
CN(C)c1ccc(CC2CCN(c3cnccn3)CC2)nn1,4.504
CCN1CCCC(c2c(-c3ccccc3)ncn2Cc2csc(N)n2)C1 (stereo not given),4.64
c1ccc(CNC2CCc3ncnn3C2)nc1 (stereo not given),2.884
Cc1cccc(NC(=O)N2CCCn3cnc(CN(C)C(C)C)c3C2)c1,-0.7588
CC1=C[C@@H](CN2CCOCC2)[C@H](C(C)C)C[C@H]1Cc1nnc(C)o1,-1.337
COCC(=O)N1CCc2c(nnn2C)C1COCCN1CCCC1 (stereo not given),8.174
O=C(c1cc(-n2cccn2)ccn1)N1CCOc2ccncc21,7.218
O=C(O)c1cc(N2C[C@H](NC(=O)C3CCOCC3)[C@@H](C3CC3)C2)ccn1,5.119
CCOc1ccc(S(=O)(=O)NC(=O)CC2CCCO2)cc1 (stereo not given),-2.703
CC(C)C(=O)NCC(=O)N1CCC2(CC1)c1ccccc1[C@@H](N)[C@@H]2O,4.616
CN(C)CCn1c(=O)n(C)c(=O)c2ccccc21,3.419
Cc1csc(CNC(=O)NC2CCCN(S(C)(=O)=O)C2)n1 (stereo not given),4.277
Cn1cc(CN2CCCN(C(=O)c3sccc3C#N)CC2)cn1,2.236
Cn1nc(CN2CCCCC2)c2c1CN(C(=O)c1cccc(Cl)c1)C2,-3.638
CC(C)(C)NC(=O)N1CCC(NC(=O)Cc2cccnc2)CC1,5.913
CC(=O)N1CCOCC2(CCCNC2)C1 (stereo not given),9.613
O=C(c1cnccn1)N1CCc2onc(CN3CCOCC3)c2C1,-6.252
Cc1cnccc1CN1CCN(C)C2(CCC(=O)N(CC3CC3)CC2)C1 (stereo not given),3.317
COCCN1CCC(CNC(=O)c2cc(C)cc(C)c2)C1 (stereo not given),1.915
O=C1CC(c2ccc(C(=O)O)cc2)c2c(sc3c2CCCC3)N1 (stereo not given),1.28
CNC(=O)[C@H]1C[C@@H]2CN(Cc3cccc(C)c3)C[C@H]1O2,3.602
O=S(=O)(c1cccs1)N1Cc2nc(CN3CCCC3)oc2C1,-0.007959
Cc1cc(C(N)=O)c2c(Br)cccc2n1,0.2941
Cc1csc(CNc2cccc(OCCN3CCCC3)c2)n1,1.767
NCC1(c2cccc(Br)c2)CCOCC1,8.442

6 of the entries, repeated:

SMILES,percent effect
Cc1ncc(CNC(=O)CCc2cccc(F)c2)c(C2CCCN2C)n1 (stereo not given),-0.4823
CNC(=O)[C@H]1C[C@@H]2CN(Cc3cccc(C)c3)C[C@H]1O2,3.602
CCc1cc(CNC(=O)N2Cc3ccccc3N(C)CC2C)on1 (stereo not given),3.599
Cc1cc(-c2nc(-c3c(C)ncc4c3CCNC4)no2)nc(C)n1,-4.238
O=C1CC(c2ccc(C(=O)O)cc2)c2c(sc3c2CCCC3)N1 (stereo not given),1.28
Cc1nc(N(C)C)nc(C)c1NS(=O)(=O)c1ccccc1Cl,4.141